According to the supplement of paper PMC7238544:
Structures can show the parent of a compound that is named as a salt. ± gives the standard deviation of the averaged measurements. This is one part of the list. The data scatter; read single values as rough.

System: hAMSC donor 2
Experiment: Hoechst total cell count ratio vs vehicle control; hAMSC are human adipose-derived mesenchymal stem cells given an EGFP-luciferase plasmid by lipofection; higher = more cells (less toxicity)
Details: priming compound concentration 13 µM

SMILES | Hoechst total cell count ratio
CN(CCOc1ccc(CC2SC(=O)NC2=O)cc1)c1ccccn1 (stereo unspecified) [Rosiglitazone maleate] | 1.03 ± 0.067
C[C@](N)(Cc1ccc(O)cc1)C(=O)O [alpha-Methyl-L-tyrosine] | 1.38 ± 0.092
COc1cc(OC)c(C(=O)CCCN2CCCC2)c(OC)c1 [Buflomedil hydrochloride] | 0.859 ± 0.029
COCCOC(=O)C1=C(C)NC(C)=C(C(=O)OC(C)C)C1c1cccc([N+](=O)[O-])c1 (stereo unspecified) [Nimodipine] | 1.18 ± 0.24
O=C(CCCN1CC=C(n2c(=O)[nH]c3ccccc32)CC1)c1ccc(F)cc1 [Droperidol] | 0.95 ± 0.08
CN1[C@@H]2CC[C@H]1C[C@@H](OC(=O)c1c[nH]c3ccccc13)C2 [Tropisetron hydrochloride] | 1.12 ± 0.086
CN1[C@@H](CC(=O)c2ccccc2)CCC[C@H]1C[C@H](O)c1ccccc1 [Lobeline hydrochloride] | 1.1 ± 0.43
CN(C)CCCC1(c2ccc(F)cc2)OCc2cc(C#N)ccc21 (stereo unspecified) [Citalopram hydrobromide] | 1.28 ± 0.21
CN(C)CCc1c[nH]c2ccc(Cn3cncn3)cc12 [Rizatriptan benzoate] | 1.3 ± 0.11
Nc1ncn([C@@H]2O[C@H](CO)[C@@H](O)[C@H]2O)c(=O)n1 [5-Azacytidine] | 1.03 ± 0.12
O=C(O)CCc1nc(-c2ccccc2)c(-c2ccccc2)o1 [Oxaprozin] | 0.811 ± 0.3
CN1CC(=O)N2[C@H](c3ccc4c(c3)OCO4)c3[nH]c4ccccc4c3C[C@@H]2C1=O [Tadalafil] | 1.34 ± 0.091
O=c1c(O[C@@H]2O[C@H](CO)[C@@H](O)[C@H](O)[C@H]2O)c(-c2ccc(O)c(O)c2)oc2cc(O)cc(O)c12 [Isoquercitrin] | 1.16 ± 0.16
CN(C)[C@@H]1C(O)=C(C(N)=O)C(=O)[C@@]2(O)C(O)=C3C(=O)c4c(O)ccc(Cl)c4[C@@H](O)[C@H]3C[C@@H]12 [Demeclocycline] | 1.25 ± 0.25
OCCN1CCN(CCCN2c3ccccc3Sc3ccc(C(F)(F)F)cc32)CC1 [Fluphenazine dihydrochloride] | 1.49 ± 0.25
CCN(CC)CCOc1ccc(C(=C(Cl)c2ccccc2)c2ccccc2)cc1 [Clomifene citrate] | 1.65 ± 0.46

Two compounds drawn at random from the list so far, as already listed:
SMILES | Hoechst total cell count ratio
O=c1c(O[C@@H]2O[C@H](CO)[C@@H](O)[C@H](O)[C@H]2O)c(-c2ccc(O)c(O)c2)oc2cc(O)cc(O)c12 [Isoquercitrin] | 1.16 ± 0.16
CN(CCOc1ccc(CC2SC(=O)NC2=O)cc1)c1ccccn1 (stereo unspecified) [Rosiglitazone maleate] | 1.03 ± 0.067

Continued:

SMILES | Hoechst total cell count ratio
N#Cc1ccc(C(c2ccc(C#N)cc2)n2cncn2)cc1 [Letrozole] | 0.931 ± 0.39
COc1cc([C@@H]2c3cc4c(cc3[C@@H](O[C@@H]3O[C@@H]5CO[C@@H](C)O[C@H]5[C@H](O)[C@H]3O)[C@H]3COC(=O)[C@H]23)OCO4)cc(OC)c1O [Etoposide] | 0.542 ± 0.049
C[C@]12C[C@H](O)[C@H]3[C@@H](CCC4=CC(=O)CC[C@@]43C)[C@@H]1CC[C@@H]2C(=O)CO [Corticosterone] | 1.23 ± 0.54
CCN1CCCC1CNC(=O)c1cc(S(=O)(=O)CC)c(N)cc1OC (stereo unspecified) [Amisulpride] | 1.28 ± 0.056
CN(C)CC[C@@H](c1ccc(Br)cc1)c1ccccn1 [Dexbrompheniramine maleate] | 0.844 ± 0.036
CC1=C(C/C=C(\C)CCC[C@H](C)CCC[C@H](C)CCCC(C)C)C(=O)c2ccccc2C1=O [Phylloquinone] | 1.37 ± 0.29
C[C@H](CS)C(=O)N1CCC[C@H]1C(=O)O [Captopril] | 1.41 ± 0.12
c1ccc2c(CC3=NCCN3)cccc2c1 [Naphazoline hydrochloride] | 0.828 ± 0.14
C[C@H]1O[C@@H](O[C@H]2[C@@H](O)C[C@H](O[C@H]3[C@@H](O)C[C@H](O[C@H]4CC[C@@]5(C)[C@H](CC[C@@H]6[C@@H]5C[C@@H](O)[C@]5(C)[C@@H](C7=CC(=O)OC7)CC[C@]65O)C4)O[C@@H]3C)O[C@@H]2C)C[C@H](O)[C@@H]1O [Digoxin] | 0.21 ± 0.034
CC#C[C@]1(O)CC[C@H]2[C@@H]3CCC4=CC(=O)CCC4=C3[C@@H](c3ccc(N(C)C)cc3)C[C@@]21C | 0.948 ± 0.36
COc1ccccc1N1CCN(CC(O)COc2cccc3ccccc23)CC1 (stereo unspecified) [Naftopidil] | 0.944 ± 0.36
CN1CCN(c2nc3cc(C(F)(F)F)ccc3n3cccc23)CC1 | 1.45 ± 0.29
CC(C)[C@H](N)C(=O)OCCOCn1cnc2c(=O)nc(N)[nH]c21 [Valaciclovir hydrochloride] | 1.03 ± 0.14
O=c1[nH]cc(F)c(=O)[nH]1 [5-Fluorouracil] | 0.805 ± 0.09
CC1(C)S[C@@H]2[C@H](NC(=O)[C@H](N)c3ccc(O)cc3)C(=O)N2[C@H]1C(=O)O [Amoxicillin] | 1.1 ± 0.099
